Substitutions are numbered along the chain they refer to. No constants are given. Whether binding was seen depends on the method and setting. Some binding calls cover weakened binding; strength is not graded here.
Assays:
Experiment in all cases: ELISA, MET deletion mutant in solid phase
[1] = molecular target: SEMA-PSI (MET ECD lacking IPT domains 1-4) (human) (UniProt P08581)
[2] = molecular target: SEMA-PSI-IPT 1-2 (MET ECD lacking IPT domains 3 and 4) (human) (UniProt P08581)
[3] = molecular target: isolated SEMA domain of human MET (human) (UniProt P08581)

Amino acid sequences for entries named in this document (tags omitted). A change or cut given only in a name is not applied to a line headed by its entry. Residues count along the entry.
UniProt P08581: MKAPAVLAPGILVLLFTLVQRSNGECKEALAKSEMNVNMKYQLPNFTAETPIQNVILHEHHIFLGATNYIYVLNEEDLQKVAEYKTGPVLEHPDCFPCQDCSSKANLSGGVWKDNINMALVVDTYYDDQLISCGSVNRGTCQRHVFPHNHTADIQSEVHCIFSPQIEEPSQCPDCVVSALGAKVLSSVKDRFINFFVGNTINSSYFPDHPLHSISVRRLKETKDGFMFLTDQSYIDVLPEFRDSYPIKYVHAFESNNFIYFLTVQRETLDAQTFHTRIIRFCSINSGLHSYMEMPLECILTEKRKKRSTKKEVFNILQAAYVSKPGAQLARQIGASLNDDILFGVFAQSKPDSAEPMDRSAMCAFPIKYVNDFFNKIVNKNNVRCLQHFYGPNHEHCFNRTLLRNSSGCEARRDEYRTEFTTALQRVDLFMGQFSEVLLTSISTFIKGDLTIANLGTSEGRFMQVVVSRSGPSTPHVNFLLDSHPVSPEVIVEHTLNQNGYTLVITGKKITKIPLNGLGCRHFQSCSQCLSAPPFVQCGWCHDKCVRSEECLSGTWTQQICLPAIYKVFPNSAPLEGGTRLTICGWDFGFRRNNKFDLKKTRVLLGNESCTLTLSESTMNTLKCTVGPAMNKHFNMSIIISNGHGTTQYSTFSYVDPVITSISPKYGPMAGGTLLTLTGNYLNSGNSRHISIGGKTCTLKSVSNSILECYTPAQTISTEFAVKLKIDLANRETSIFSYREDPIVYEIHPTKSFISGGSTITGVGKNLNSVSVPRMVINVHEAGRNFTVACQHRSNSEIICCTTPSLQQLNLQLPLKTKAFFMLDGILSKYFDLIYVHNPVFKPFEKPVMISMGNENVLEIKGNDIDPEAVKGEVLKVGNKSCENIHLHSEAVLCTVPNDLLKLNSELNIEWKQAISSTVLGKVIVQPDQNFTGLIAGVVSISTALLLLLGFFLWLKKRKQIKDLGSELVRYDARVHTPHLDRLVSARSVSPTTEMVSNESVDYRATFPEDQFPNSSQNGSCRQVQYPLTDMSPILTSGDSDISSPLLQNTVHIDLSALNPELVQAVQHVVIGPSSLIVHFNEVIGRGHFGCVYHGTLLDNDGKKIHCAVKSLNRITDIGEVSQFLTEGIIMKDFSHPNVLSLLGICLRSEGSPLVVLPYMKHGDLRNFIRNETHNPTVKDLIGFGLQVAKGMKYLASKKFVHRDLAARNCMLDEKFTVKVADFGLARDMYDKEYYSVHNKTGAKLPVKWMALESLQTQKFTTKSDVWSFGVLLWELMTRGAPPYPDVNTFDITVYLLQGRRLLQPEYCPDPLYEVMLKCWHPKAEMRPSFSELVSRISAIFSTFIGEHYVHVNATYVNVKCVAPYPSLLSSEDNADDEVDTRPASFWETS
SEMA-PSI-IPT 1-2 (MET ECD lacking IPT domains 3 and 4): residues 25-741 of P08581
SEMA-PSI (MET ECD lacking IPT domains 1-4): residues 25-562 of P08581
isolated SEMA domain of human MET: residues 27-515 of P08581

B1: 76H10 chimeric llama-human IgG1 mAb (antibody, V domains shown)
VH: QLQLVESGGGLVQPGGSLRVSCTASGFTFNTYYMTWVRQAPGKGLEWVSDINSGGGTYYADSVKGRFTISRDNAKNTLYLQMNSLKPEDTALYYCVRVRIWPVGYDYWGQGTQVTVSS
VL: QAVVTQEPSLSVSPGGTVTLTCGLSSGSVTTSNYPGWFQQTPGQAPRTLIYNTNNRHSGVPSRFSGSISGNKAALTITGAQPEDEADYYCSLYTGSYTTVFGGGTHLTVL
notes: llama VH on human IgG1 CH1-CH2-CH3, llama VL on human lambda CL
binding [1]: binds
binding [2]: binds

B2: 71G3 chimeric llama-human IgG1 mAb (antibody, V domains shown)
VH: QVQLVESGGGLVQPGGSLRVSCAASGFTFSTYYMSWVRQAPGKGLEWVSDIRTDGGTYYADSVKGRFTMSRDNAKNTLYLQMNSLKPEDTALYYCARTRIFPSGYDYWGQGTQVTVSS
VL: QAVVTQEPSLSVSPGGTVTLTCGLSSGSVTTSNYPGWFQQTPGQAPRTLIYNTNSRHSGVPSRFSGSISGNKAALTIMGAQPEDEADYYCSLYPGSTTVFGGGTHLTVL
notes: as for B1
binding [1]: binds
binding [2]: binds

B3: 71D6 chimeric llama-human IgG1 mAb (antibody, V domains shown)
VH: ELQLVESGGGLVQPGGSLRLSCAASGFTFSSYGMSWVRQAPGKGLEWVSAINSYGGSTSYADSVKGRFTISRDNAKNTLYLQMNSLKPEDTAVYYCAKEVRADLSRYNDYESYDYWGQGTQVTVSS
VL: QPVLNQPSALSVTLGQTAKITCQGGSLGARYAHWYQQKPGQAPVLVIYDDDSRPSGIPERFSGSSSGGTATLTISGAQAEDEGDYYCQSADSSGSVFGGGTHLTVL
notes: as for B1
binding [3]: binds
binding [1]: binds
binding [2]: binds

B4: 71C3 chimeric llama-human IgG1 mAb (antibody, V domains shown)
VH: B3 VH with E1Q, Y32H, G33A, Y54G, V100L, A102F, S105A, N108T, S112A, Y113W
VL: SYELTQPSALSVTLGQTAKITCQGGSLGSSYAHWYQQKPGQAPVLVIYDDDSRPSGIPERFSGSSSGGTATLTISGAQAEDEGDYYCQSADSSGNAAVFGGGTHLTVL
notes: as for B1
binding [3]: binds
binding [1]: binds
binding [2]: binds

B5: 71D4 chimeric llama-human IgG1 mAb (antibody, V domains shown)
VH: B3 VH with S31G, A50D, Y54G, E99D, V100M, A102L, D103Y, S105A, S112A, Y113W
VL: B4 VL with Y2S, E3A
notes: as for B1
binding [3]: binds
binding [1]: binds
binding [2]: binds

B6: 71A3 chimeric llama-human IgG1 mAb (antibody, V domains shown)
VH: EVQLVESGGGLVQPGGSLRLSCAASGFSFKDYDITWVRQAPGKGLEWVSTITSRSGSTSYVDSVKGRFTISGDNAKNTLYLQMNSLKPEDTAVYYCAKVYATTWDVGPLGYGMDYWGKGTLVTVSS
VL: B4 VL
notes: as for B1
binding [3]: binds
binding [1]: binds
binding [2]: binds

B7: 71G2 chimeric llama-human IgG1 mAb (antibody, V domains shown)
VH: EVQLQESGGGLVQPGGSLRLSCAASGFTFSIYDMSWVRQAPGKGLEWVSTINSDGSSTSYVDSVKGRFTISRDNAKNTLYLQMNSLKPEDTAVYYCAKVYGSTWDVGPMGYGMDYWGKGTLVTVSS
VL: SSALTQPSALSVSLGQTARITCQGGSLGSSYAHWYQQKPGQAPVLVIYGDDSRPSGIPERFSGSSSGGTATLTISGAQAEDEDDYYCQSTDSSGNTVFGGGTRLTVL
notes: as for B1
binding [3]: binds
binding [1]: binds
binding [2]: binds

B8: 76G7 chimeric llama-human IgG1 mAb (antibody, V domains shown)
VH: QVQLVESGGNLVQPGGSLRLSCAASGFTFSNYYMSWVRQAPGKGLEWVSDIYSDGSTTWYSDSVKGRFTISRDNAKNTLSLQMNSLKSEDTAVYYCARVKIYPGGYDAWGQGTQVTVSS
VL: QAGLTQPPSVSGSPGKTVTISCAGNSSDVGYGNYVSWYQQFPGMAPKLLIYLVNKRASGITDRFSGSKSGNTASLTISGLQSEDEADYYCASYTGSNNIVFGGGTHLTVL
notes: as for B1
binding [1]: binds
binding [2]: binds

B9: 71G12 chimeric llama-human IgG1 mAb (antibody, V domains shown)
VH: QVQLQESGGDLVQPGGSLRVSCVVSGFTFSRYYMSWVRQAPGKGLEWVSSIDSYGYSTYYTDSVKGRFTISRDNAKNTLYLQMNSLKPEDTALYYCARAKTTWSYDYWGQGTQVTVSS
VL: EIVLTQSPSSVTASVGGKVTINCKSSQSVFIASNQKTYLNWYQQRPGQSPRLVISYASTRESGIPDRFSGSGSTTDFTLTISSVQPEDAAVYYCQQAYSHPTFGQGTKVELK
notes: llama VH on human IgG1 CH1-CH2-CH3, llama VL on human kappa CL
binding [1]: binds
binding [2]: binds

B10: 74C8 chimeric llama-human IgG1 mAb (antibody, V domains shown)
VH: EVQLVESGGGLVQPGGSLRLSCAASGFTFRNYHMSWVRQVPGKGFEWISDINSAGGSTYYADSVKGRFTISRDNAKNTLYLEMNSLKPEDTALYYCARVNVWGVNYWGKGTLVSVSS
VL: B1 VL with A2T, N55S, T94P, T99N
notes: as for B1
binding [3]: binds
binding [1]: binds
binding [2]: binds

B11: 72F8 chimeric llama-human IgG1 mAb (antibody, V domains shown)
VH: ELQLVESGGGLVQPGGSLRLSCAASGFTFSNYVMSWVRQAPGKGLEWVSDTNSGGSTSYADSVKGRFTISRDNAKNTLYLQMNSLKPEDTALYYCARSFFYGMNYWGKGTQVTVSS
VL: QSALTQPPSLSASPGSSVRLTCTLSSGNNIGSYDISWYQQKAGSPPRYLLNYYTDSRKHQDSGVPSRFSGSKDASANAGLLLISGLQPEDEADYYCSAYKSGSYRWVFGGGTHVTVL
notes: as for B1
binding [3]: binds
binding [1]: binds
binding [2]: binds

Reference: patent US20210087281A1 (AGOMAB THERAPEUTICS, published 2021)
